According to PubChem BioAssay AID330 (DTP/NCI, 2004):
The list shows only some results of the screen, not a fair sample: it gathers some chemical classes. Not every dose and run of a compound is shown. T/C is the treated group as % of the vehicle group. Some entries give survivors of the animals treated and no T/C: the source files T/C as zero there, which appears to mark a toxic dose or a test without result, not a measured value. Some doses without a T/C left all or most animals alive at the check, yet need not have been tolerated: the source hardly ever lists a survival T/C far under the control, and the zero likely stands for such cases as well. Survivors were counted at the toxicity check, usually on the fifth day, unless a day is given; later deaths do not show. Schedules are NCI's codes, taken here to give the interval after Q, in days (D) or hours (H), and the number of doses after X. Some complexes appear as separate parts, the way the source draws them; their charges need not add up. Where survival is the endpoint, the PubChem record calls one and a half times the control and up active, and a quarter to a half above the control has no call in these data; cut-offs in other NCI protocols can differ. Some T/C values carry the count of animals alive at the toxicity check (mostly the fifth day); where neither a count nor a note follows, no animal had died by that day. Some doses were run more than once; the values are given in rising order. Some T/C values are marked as having no survivor count here; that says nothing about deaths at the dose.

Test system: P388 leukemia ip, CD2F1 mice, survival T/C
Test: NCI In Vivo Anticancer Drug Screen. Data for tumor model P388 Leukemia (intraperitoneal) in CD2F1 (CDF1) mice
Settings: T/C endpoint: median survival time, higher T/C = longer survival
[1] = dose: 100.0 mg/kg/injection, schedule: Q04DX003 (ip), vehicle: saline
[2] = dose: 200.0 mg/kg/injection, schedule: Q04DX003 (ip), vehicle: saline
[3] = dose: 400.0 mg/kg/injection, schedule: Q04DX003 (ip), vehicle: saline
[4] = dose: 25.0 mg/kg/injection, schedule: Q01DX009 (ip), vehicle: saline
[5] = dose: 50.0 mg/kg/injection, schedule: Q01DX009 (ip), vehicle: saline
[6] = dose: 100.0 mg/kg/injection, schedule: Q01DX009 (ip), vehicle: saline
[7] = dose: 200.0 mg/kg/injection, schedule: Q01DX009 (ip), vehicle: saline
[8] = dose: 12.5 mg/kg/injection, schedule: Q01DX009 (ip), vehicle: saline with Tween-80
[9] = dose: 25.0 mg/kg/injection, schedule: Q01DX009 (ip), vehicle: saline with Tween-80
[10] = dose: 50.0 mg/kg/injection, schedule: Q01DX009 (ip), vehicle: saline with Tween-80
[11] = dose: 6.25 mg/kg/injection, schedule: Q01DX009 (ip), vehicle: saline
[12] = dose: 12.5 mg/kg/injection, schedule: Q01DX009 (ip), vehicle: saline
[13] = dose: 60.0 mg/kg/injection, schedule: Q01DX005 (ip), vehicle: saline with Tween-80
[14] = dose: 120.0 mg/kg/injection, schedule: Q01DX005 (ip), vehicle: saline with Tween-80
[15] = dose: 240.0 mg/kg/injection, schedule: Q01DX005 (ip), vehicle: saline with Tween-80
[16] = dose: 12.5 mg/kg/injection, schedule: Q01DX009 (ip), vehicle: Klucel (hydroxypropylcellulose) (HPC)

With O=C(CCC([N+](=O)[O-])([N+](=O)[O-])[N+](=O)[O-])OCC([N+](=O)[O-])([N+](=O)[O-])[N+](=O)[O-] the T/C [1] was 97 % of control, the T/C [2] was 98 % of control and the T/C [3] was 103 % of control [5 of 6 alive].
With CC(=O)NC1C(O)OC(CS[As](C)C)C(O)C1O (centres undefined) the T/C (dose: 25.0 mg/kg/injection, schedule: Q01DX008 (ip), vehicle: saline) was 111 % of control, the T/C [4] was 121 % of control and the T/C (dose: 50.0 mg/kg/injection, schedule: Q01DX008 (ip), vehicle: saline) was 110 % of control. The T/C [5] was 114 [5 of 6 alive] and 137 % of control, the T/C (dose: 100.0 mg/kg/injection, schedule: Q01DX008 (ip), vehicle: saline) was 119 % of control and the T/C [6] was 110 and 125 % of control. For the same compound, the T/C [7] was 114 % of control.
In the case of CN(C)c1nc(N(C)C)nc(N(CCCl)CCCl)n1, the T/C (dose: 25.0 mg/kg/injection, schedule: Q04DX002 (ip), vehicle: saline) is reported as 102 % of control, the T/C (dose: 50.0 mg/kg/injection, schedule: Q04DX002 (ip), vehicle: saline) is reported as 106 % of control and the survivor count (dose: 100.0 mg/kg/injection, schedule: Q04DX002 (ip), vehicle: saline) is reported as 0 of 6.
For CN1C(=O)C(C)(Br)CSC1=NCc1ccccc1 (centres undefined), the T/C (dose: 50.0 mg/kg/injection, schedule: Q01DX005 (ip), vehicle: saline with Tween-80) was 100 % of control, the T/C (dose: 100.0 mg/kg/injection, schedule: Q01DX005 (ip), vehicle: saline with Tween-80) was 93 % of control and the T/C (dose: 200.0 mg/kg/injection, schedule: Q01DX005 (ip), vehicle: saline with Tween-80) was 103 % of control.
O=[N+]([O-])C(F)(CNC(=S)NCC(F)([N+](=O)[O-])[N+](=O)[O-])[N+](=O)[O-] was tested, and the T/C [1] was 98 % of control, the T/C [2] was 98 % of control and the T/C [3] was 104 % of control.
For CCOC(=O)CCC([N+](=O)[O-])([N+](=O)[O-])[N+](=O)[O-], the T/C [6] was 111 % of control, the T/C [7] was 116 % of control and the T/C (dose: 400.0 mg/kg/injection, schedule: Q01DX009 (ip), vehicle: saline) was 125 % of control.
For CCN(CC)Cc1ccc(N(CCCl)CCCl)cc1, the T/C (dose: 33.0 mg/kg/injection, schedule: Q01DX009 (ip), vehicle: saline) was 141 % of control, the T/C [5] was 150 and 159 % of control [5 of 6 alive] and the T/C (dose: 75.0 mg/kg/injection, schedule: Q01DX009 (ip), vehicle: saline) was 128 % of control [5 of 6 alive]. The survivor count [6] was 1 of 6 and the survivor count [7] was 0 of 6.
CC(C)OP(C)(=O)O.[Er] was tested, and the T/C [8] was 100 % of control [survivor count not shown], the T/C [9] was 96 % of control [survivor count not shown] and the T/C [10] was 87 % of control [survivor count not shown].
For O=[N+]([O-])c1ccc(OCC(COc2ccc([N+](=O)[O-])cc2[N+](=O)[O-])(COc2ccc([N+](=O)[O-])cc2[N+](=O)[O-])COc2ccc([N+](=O)[O-])cc2[N+](=O)[O-])c([N+](=O)[O-])c1, the T/C [8] was 105 % of control, the T/C [9] was 104 % of control and the T/C [10] was 107 % of control.
In the case of N/C=N/P(=O)(Oc1ccccc1)Oc1ccccc1, the T/C (dose: 25.0 mg/kg/injection, schedule: Q04DX003 (ip), vehicle: Klucel (hydroxypropylcellulose) (HPC)) is reported as 102 % of control, the T/C (dose: 50.0 mg/kg/injection, schedule: Q04DX003 (ip), vehicle: Klucel (hydroxypropylcellulose) (HPC)) is reported as 100 % of control and the survivor count (dose: 100.0 mg/kg/injection, schedule: Q04DX003 (ip), vehicle: Klucel (hydroxypropylcellulose) (HPC)) is reported as 1 of 6.
With OO.[C-]#N.[C-]#N.[C-]#N.[C-]#N.[C-]#N.[C-]#N.[C-]#N.[C-]#N.[C-]#N.[C-]#N.[Co].[Co] the T/C (dose: 3.13 mg/kg/injection, schedule: Q01DX009 (ip), vehicle: saline) was 104 % of control, the T/C [11] was 95 % of control and the T/C [12] was 86 % of control. For the same compound, the survivor count (dose: 50.0 mg/kg/injection, schedule: Q01DX009 (ip), vehicle: suspension in saline) was 0 of 6, the survivor count (dose: 100.0 mg/kg/injection, schedule: Q01DX009 (ip), vehicle: suspension in saline) was 0 of 6 and the survivor count (dose: 200.0 mg/kg/injection, schedule: Q01DX009 (ip), vehicle: suspension in saline) was 0 of 6.
In the case of O=c1c2ccccc2c(=O)n2n1P(Cl)CP2Cl (centres undefined), the T/C [13] is reported as 92 % of control, the T/C [14] is reported as 92 % of control and the survivor count [15] is reported as 0 of 6.
For COc1ccc(N2CC=C(c3ccc(Cl)cc3)OP2(=O)Cl)cc1 (centres undefined), the T/C (dose: 100.0 mg/kg/injection, schedule: Q04DX002 (ip), vehicle: saline with Tween-80) was 100 % of control, the T/C (dose: 200.0 mg/kg/injection, schedule: Q04DX002 (ip), vehicle: saline with Tween-80) was 95 % of control and the T/C (dose: 400.0 mg/kg/injection, schedule: Q04DX002 (ip), vehicle: saline with Tween-80) was 104 % of control.
With ClCC[N+]1(CCCl)CCCO1 the T/C [11] was 159 % of control, the T/C (dose: 11.0 mg/kg/injection, schedule: Q04DX003 (ip), vehicle: saline) was 154 % of control and the T/C [12] was 100 % of control. The T/C (dose: 16.5 mg/kg/injection, schedule: Q04DX003 (ip), vehicle: saline) was 168 % of control, the T/C [4] was 90 % of control and the T/C (dose: 25.0 mg/kg/injection, schedule: Q04DX003 (ip), vehicle: saline) was 190 % of control. For the same compound, the T/C (dose: 37.5 mg/kg/injection, schedule: Q04DX003 (ip), vehicle: saline) was 86 % of control.
For CN1CCC(O)(c2ccccc2)CC1.O=[N+]([O-])c1cc([N+](=O)[O-])c(O)c([N+](=O)[O-])c1, the T/C [13] was 97 % of control, the T/C [14] was 105 % of control and the T/C [15] was 102 % of control [5 of 6 alive].
In the case of CCCCCCCCCCCCCCCCCC[N+](C)(C)C.F[P-](F)(F)(F)(F)F, the T/C (dose: 3.12 mg/kg/injection, schedule: Q01DX009 (ip), vehicle: Klucel (hydroxypropylcellulose) (HPC)) is reported as 111 and 123 % of control, the T/C (dose: 6.25 mg/kg/injection, schedule: Q01DX009 (ip), vehicle: Klucel (hydroxypropylcellulose) (HPC)) is reported as 120 and 131 % of control and the T/C [16] is reported as 87 % of control. For the same compound, the survivor count [16] was 6 of 6, the survivor count (dose: 50.0 mg/kg/injection, schedule: Q01DX009 (ip), vehicle: Klucel (hydroxypropylcellulose) (HPC)) was 0 of 6 and the survivor count (dose: 100.0 mg/kg/injection, schedule: Q01DX009 (ip), vehicle: Klucel (hydroxypropylcellulose) (HPC)) was 0 of 6. For the same compound, the survivor count (dose: 200.0 mg/kg/injection, schedule: Q01DX009 (ip), vehicle: Klucel (hydroxypropylcellulose) (HPC)) was 0 of 6.
For CCO[PH+]([O-])OCC.CCO[PH+]([O-])OCC.CCO[PH+]([O-])OCC.[Co+3].[Na+].c1cc[cH-]c1, the T/C [12] was 100 % of control, the T/C [4] was 86 % of control and the T/C [5] was 89 and 92 % of control. The T/C [6] was 107 % of control [5 of 6 alive] and the survivor count [7] was 0 of 6.
N/C(=N\[N+](=O)[O-])N(CCO[N+](=O)[O-])N=O was tested, and the T/C [9] was 127 % of control [survivor count not shown], the T/C (dose: 25.0 mg/kg/injection, schedule: Q04DX003 (ip), vehicle: saline with Tween-80) was 118 % of control [survivor count not shown] and the T/C [10] was 127 % of control [survivor count not shown]. The T/C (dose: 50.0 mg/kg/injection, schedule: Q04DX003 (ip), vehicle: saline with Tween-80) was 118 % of control [survivor count not shown], the T/C (dose: 66.0 mg/kg/injection, schedule: Q04DX003 (ip), vehicle: saline with Tween-80) was 131 % of control [survivor count not shown] and the T/C (dose: 100.0 mg/kg/injection, schedule: Q04DX003 (ip), vehicle: saline with Tween-80) was 131 [survivor count not shown] and 140 % of control [survivor count not shown].
For CCOC(=O)NC(C)(CC(C)(NC(=O)OCC)P(=O)(O)Nc1ncn[nH]1)P(=O)(O)Nc1ncn[nH]1 (centres undefined), the T/C (dose: 60.0 mg/kg/injection, schedule: Q01DX005 (ip), vehicle: saline) was 103 % of control, the T/C (dose: 120.0 mg/kg/injection, schedule: Q01DX005 (ip), vehicle: saline) was 103 % of control and the T/C (dose: 240.0 mg/kg/injection, schedule: Q01DX005 (ip), vehicle: saline) was 94 % of control.
